Patent US20120009190A1 (Amgen, published 2012)
Results are given in words; binding and its absence hold for the method and conditions named. Some results given as binding are weak or reduced against the parent protein; the word gives no strength. For some of these results: Where a sequence is shown, tags or fusion partners need not be part of it.

Protein sequences, listed by entry. Tags and fused reporters are not part of them. Lines headed by an entry give the natural chain unless they say otherwise; changes in a name come on top. Chains listed by the source or under a name are the forms on record and can include a tag or linker.
huIL-17.Fc (huIL17 with N-terminal flag and huFC (IgG1)) (Q16552, form named): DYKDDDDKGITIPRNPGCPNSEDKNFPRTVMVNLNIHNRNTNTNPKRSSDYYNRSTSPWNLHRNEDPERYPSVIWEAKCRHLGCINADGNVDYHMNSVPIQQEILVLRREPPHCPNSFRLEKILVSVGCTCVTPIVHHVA

What was measured:
[1] = biological target: IL-17RAΔFN2linker/CFP (FN2/linker region, residues 152-525, fused to CFP), expressed in HEK293 cells (murine) (UniProt Q60943); assay: flow cytometry, huIL-17.Fc staining
[2] = biological target: IL-17RAΔFN2linker/CFP (FN2/linker region, residues 152-525, fused to CFP), expressed in HEK293 cells (murine) (UniProt Q60943); assay: flow cytometry, huIL-17.Fc then anti-Fc-APC, endogenous human IL-17RA blocked
[3] = biological target: IL-17RAΔFN2linker/CFP (FN2/linker region, residues 152-525, fused to CFP), expressed in HEK293 cells (murine) (UniProt Q60943); assay: flow cytometry, huIL-17.Fc then anti-huIgG-APC, endogenous human IL-17RA blocked with M202
[4] = biological target: IL-17RAΔ/YFP (complete IL-17RA ECD and transmembrane domain, cytoplasmic tail truncated at residue 525, fused to YFP), expressed in HEK293 cells (murine) (UniProt Q60943); assay: FRET in HEK293 cells, no ligand
[5] = biological target: IL-17RAΔFN2linker/YFP (FN2/linker region, residues 152-525, fused to YFP), expressed in HEK293 cells (murine) (UniProt Q60943); assay: FRET in HEK293 cells, no ligand
[6] = biological target: IL-17RAΔFN2linker/YFP (FN2/linker region, residues 152-525, fused to YFP), expressed in HEK293 cells (murine) (UniProt Q60943); assay: FRET in HEK293 cells

Molecule	binding [1]	binding [2]	binding [3]	binding [4]	binding [5]	binding [6]
huIL-17.Fc (huIL17 with N-terminal flag and huFC (IgG1)) (from UniProt Q16552 24-155) (Fc fusion)	binds	binds	binds	–	–	–
IL-17RAΔ/CFP (complete IL-17RA ECD and transmembrane domain, cytoplasmic tail truncated at residue 525, fused to CFP), expressed in HEK293 cells (receptor, not shown: large carriers) SPRLLDFPAPVCAQEGLSCRVKNSTCLDDSWIHPKNLTPSSPKNIYINLSVSSTQHGELVPVLHVEWTLQTDASILYLEGAELSVLQLNTNERLCVKFQFLSMLQHHRKRWRFSFSHFVVDPGQEYEVTVHHLPKPIPDGDPNHKSKIIFVPDCEDSKMKMTTSCVSSGSLWDPNITVETLDTQHLRVDFTLWNESTPYQVLLESFSDSENHSCFDVVKQIFAPRQEEFHQRANVTFTLSKFHWCCHHHVQVQPFFSSCLNDCLRHAVTVPCPVISNTTVPKPVADYIPLWVYGLITLIAILLVGSVIVLIICMTWRLSGADQEKHGDDSKINGILPVADLTPPPLRPRKVWIVYSADHPLYVEVVLKFAQFLITACGTEVALDLLEEQVISEVGVMTWVSRQKQEMVESNSKIIILCSRGTQAKWKAILGWAEPAVQLRCDHWKPAGDLFTAAMNMILPDFKRPACFGTYVVCYFSGICSERDVPDLFNITSRYPLMDRFEEVYFRIQDLEMFEPGRMHHVREL	–	–	–	binds	binds	–
IL-17RAΔFN2linker/CFP (FN2/linker region, residues 152-525, fused to CFP), expressed in HEK293 cells (receptor, not shown: large carriers) PDCEDSKMKMTTSCVSSGSLWDPNITVETLDTQHLRVDFTLWNESTPYQVLLESFSDSENHSCFDVVKQIFAPRQEEFHQRANVTFTLSKFHWCCHHHVQVQPFFSSCLNDCLRHAVTVPCPVISNTTVPKPVADYIPLWVYGLITLIAILLVGSVIVLIICMTWRLSGADQEKHGDDSKINGILPVADLTPPPLRPRKVWIVYSADHPLYVEVVLKFAQFLITACGTEVALDLLEEQVISEVGVMTWVSRQKQEMVESNSKIIILCSRGTQAKWKAILGWAEPAVQLRCDHWKPAGDLFTAAMNMILPDFKRPACFGTYVVCYFSGICSERDVPDLFNITSRYPLMDRFEEVYFRIQDLEMFEPGRMHHVREL	–	–	–	–	binds	binds
